Measurements reported in the supplement of paper PMC10849652.
The other results are listed elsewhere or left out. Residues, ends and D or L forms follow the SMILES beside them. *: point of attachment. Cbz = O=C(OCc1ccccc1)*

Chains of the proteins cited; added tags and fusions are not shown. Lines headed by an entry give the natural chain unless they say otherwise; changes in a name come on top.
UniProt Q9Y285: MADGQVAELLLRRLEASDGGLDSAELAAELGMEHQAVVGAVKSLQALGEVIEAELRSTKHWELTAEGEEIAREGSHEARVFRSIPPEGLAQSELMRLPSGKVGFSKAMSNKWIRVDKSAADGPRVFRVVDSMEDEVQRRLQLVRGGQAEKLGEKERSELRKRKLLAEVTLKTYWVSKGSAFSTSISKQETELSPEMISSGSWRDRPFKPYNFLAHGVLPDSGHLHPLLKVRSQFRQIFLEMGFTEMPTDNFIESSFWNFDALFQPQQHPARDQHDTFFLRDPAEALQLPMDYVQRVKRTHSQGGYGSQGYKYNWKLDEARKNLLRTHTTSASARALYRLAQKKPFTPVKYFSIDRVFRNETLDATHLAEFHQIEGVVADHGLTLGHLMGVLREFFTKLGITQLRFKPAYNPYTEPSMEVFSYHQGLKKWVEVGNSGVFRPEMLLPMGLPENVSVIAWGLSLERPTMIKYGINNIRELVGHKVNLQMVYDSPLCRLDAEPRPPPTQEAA
UniProt Q5XUX1: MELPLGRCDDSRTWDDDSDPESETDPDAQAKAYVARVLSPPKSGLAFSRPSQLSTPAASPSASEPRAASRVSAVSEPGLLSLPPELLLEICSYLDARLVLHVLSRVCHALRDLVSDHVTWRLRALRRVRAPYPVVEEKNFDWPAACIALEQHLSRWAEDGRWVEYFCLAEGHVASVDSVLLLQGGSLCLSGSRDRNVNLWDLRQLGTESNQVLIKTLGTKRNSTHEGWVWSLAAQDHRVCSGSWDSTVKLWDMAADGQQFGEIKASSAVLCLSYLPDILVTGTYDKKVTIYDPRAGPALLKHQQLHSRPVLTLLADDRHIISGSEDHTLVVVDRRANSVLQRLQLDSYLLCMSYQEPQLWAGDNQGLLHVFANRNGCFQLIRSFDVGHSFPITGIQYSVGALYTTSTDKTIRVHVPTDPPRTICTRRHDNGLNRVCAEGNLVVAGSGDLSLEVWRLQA
UniProt Q92520: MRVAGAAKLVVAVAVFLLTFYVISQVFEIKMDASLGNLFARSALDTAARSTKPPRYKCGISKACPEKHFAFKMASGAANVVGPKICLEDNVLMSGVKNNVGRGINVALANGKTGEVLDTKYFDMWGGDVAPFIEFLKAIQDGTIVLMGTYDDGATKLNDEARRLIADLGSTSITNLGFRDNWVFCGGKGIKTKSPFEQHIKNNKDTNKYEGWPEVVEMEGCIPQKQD
UniProt P31995: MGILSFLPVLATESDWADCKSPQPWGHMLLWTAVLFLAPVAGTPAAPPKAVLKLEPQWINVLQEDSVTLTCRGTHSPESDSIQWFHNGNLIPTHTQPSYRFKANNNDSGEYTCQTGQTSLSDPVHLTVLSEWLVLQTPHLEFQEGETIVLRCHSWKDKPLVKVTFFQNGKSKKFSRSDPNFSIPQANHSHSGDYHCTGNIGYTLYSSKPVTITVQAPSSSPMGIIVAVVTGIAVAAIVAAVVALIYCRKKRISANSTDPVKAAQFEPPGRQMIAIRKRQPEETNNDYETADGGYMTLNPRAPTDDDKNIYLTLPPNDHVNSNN
UniProt Q8N0W3: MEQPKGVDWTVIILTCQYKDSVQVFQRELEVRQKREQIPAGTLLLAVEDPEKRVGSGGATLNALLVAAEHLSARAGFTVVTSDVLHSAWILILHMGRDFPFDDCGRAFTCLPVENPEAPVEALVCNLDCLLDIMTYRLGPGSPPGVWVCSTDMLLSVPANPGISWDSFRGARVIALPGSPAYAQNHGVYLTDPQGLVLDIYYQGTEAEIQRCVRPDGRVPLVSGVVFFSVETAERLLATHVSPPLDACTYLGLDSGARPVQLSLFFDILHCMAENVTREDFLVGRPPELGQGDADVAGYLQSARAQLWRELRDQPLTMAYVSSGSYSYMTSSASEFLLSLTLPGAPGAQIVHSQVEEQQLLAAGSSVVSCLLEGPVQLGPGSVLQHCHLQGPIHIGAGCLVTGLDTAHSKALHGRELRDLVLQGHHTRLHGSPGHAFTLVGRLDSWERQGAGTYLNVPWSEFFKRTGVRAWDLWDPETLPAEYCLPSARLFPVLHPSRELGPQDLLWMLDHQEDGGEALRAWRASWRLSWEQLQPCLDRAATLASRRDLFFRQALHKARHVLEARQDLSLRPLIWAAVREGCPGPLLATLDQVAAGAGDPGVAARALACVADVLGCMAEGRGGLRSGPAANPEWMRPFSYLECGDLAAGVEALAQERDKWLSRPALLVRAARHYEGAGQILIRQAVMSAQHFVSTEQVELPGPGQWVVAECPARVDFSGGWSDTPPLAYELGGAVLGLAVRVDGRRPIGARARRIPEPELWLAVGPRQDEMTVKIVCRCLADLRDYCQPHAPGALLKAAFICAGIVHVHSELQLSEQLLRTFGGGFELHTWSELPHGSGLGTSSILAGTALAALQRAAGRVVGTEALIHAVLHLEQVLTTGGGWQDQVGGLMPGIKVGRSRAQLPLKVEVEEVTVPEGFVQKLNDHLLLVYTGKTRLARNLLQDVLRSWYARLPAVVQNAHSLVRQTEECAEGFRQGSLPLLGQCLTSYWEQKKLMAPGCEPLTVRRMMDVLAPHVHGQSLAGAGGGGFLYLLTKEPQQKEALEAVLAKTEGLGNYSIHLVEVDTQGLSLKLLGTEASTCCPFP
UniProt Q14192: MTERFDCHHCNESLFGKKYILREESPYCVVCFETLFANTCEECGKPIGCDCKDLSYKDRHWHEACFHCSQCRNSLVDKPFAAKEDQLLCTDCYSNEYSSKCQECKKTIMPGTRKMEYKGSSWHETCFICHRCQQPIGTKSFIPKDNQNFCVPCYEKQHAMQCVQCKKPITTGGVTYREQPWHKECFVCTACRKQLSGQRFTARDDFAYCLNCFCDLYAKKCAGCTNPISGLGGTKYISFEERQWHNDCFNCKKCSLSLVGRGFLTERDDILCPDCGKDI
UniProt Q86UX7, whole entry, looked up: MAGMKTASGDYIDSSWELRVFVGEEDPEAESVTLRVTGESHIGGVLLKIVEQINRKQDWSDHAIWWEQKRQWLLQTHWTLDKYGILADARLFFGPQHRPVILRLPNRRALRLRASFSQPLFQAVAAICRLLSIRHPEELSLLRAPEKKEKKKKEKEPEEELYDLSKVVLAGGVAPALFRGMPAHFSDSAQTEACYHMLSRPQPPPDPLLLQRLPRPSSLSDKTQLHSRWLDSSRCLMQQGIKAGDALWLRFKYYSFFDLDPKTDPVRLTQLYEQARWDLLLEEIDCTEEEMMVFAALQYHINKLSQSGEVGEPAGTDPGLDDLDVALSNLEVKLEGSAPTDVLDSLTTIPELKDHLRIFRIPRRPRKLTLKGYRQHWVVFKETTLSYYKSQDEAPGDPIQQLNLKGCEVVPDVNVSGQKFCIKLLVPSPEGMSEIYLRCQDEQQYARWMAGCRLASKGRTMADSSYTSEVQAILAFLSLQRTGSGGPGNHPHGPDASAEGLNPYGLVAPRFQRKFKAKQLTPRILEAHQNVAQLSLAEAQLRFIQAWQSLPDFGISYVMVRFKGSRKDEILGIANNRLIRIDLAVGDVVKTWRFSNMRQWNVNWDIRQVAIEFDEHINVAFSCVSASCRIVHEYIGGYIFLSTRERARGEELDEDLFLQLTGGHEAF
UniProt P22570: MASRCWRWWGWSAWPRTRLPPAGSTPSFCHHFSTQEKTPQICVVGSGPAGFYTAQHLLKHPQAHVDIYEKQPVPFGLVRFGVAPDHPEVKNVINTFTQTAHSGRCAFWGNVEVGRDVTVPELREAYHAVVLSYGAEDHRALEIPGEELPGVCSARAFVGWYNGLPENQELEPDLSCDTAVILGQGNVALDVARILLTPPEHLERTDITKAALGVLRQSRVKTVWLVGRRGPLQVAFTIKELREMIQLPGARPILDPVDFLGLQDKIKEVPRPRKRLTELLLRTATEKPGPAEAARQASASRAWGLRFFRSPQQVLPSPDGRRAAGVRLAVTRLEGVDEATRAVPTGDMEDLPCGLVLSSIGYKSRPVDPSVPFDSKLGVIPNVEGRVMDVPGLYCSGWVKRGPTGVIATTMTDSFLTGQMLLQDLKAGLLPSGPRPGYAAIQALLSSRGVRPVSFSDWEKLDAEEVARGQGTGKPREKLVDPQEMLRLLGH
UniProt Q96KR6: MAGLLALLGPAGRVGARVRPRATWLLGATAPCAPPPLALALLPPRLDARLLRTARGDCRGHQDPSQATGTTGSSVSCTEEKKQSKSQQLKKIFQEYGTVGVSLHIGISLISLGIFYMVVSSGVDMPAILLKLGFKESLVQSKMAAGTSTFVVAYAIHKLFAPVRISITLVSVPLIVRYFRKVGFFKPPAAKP
UniProt Q96HJ9: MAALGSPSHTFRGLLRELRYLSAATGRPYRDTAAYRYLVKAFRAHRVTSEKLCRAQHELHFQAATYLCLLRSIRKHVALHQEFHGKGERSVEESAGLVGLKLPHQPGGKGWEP
UniProt Q13643: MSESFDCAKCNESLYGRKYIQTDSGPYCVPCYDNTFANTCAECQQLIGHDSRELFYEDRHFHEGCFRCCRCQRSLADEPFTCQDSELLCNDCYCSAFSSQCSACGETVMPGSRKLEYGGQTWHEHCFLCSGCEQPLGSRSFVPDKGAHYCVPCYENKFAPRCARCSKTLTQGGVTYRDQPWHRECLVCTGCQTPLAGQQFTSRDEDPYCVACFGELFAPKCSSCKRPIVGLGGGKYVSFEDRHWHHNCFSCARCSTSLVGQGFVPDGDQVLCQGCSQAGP
UniProt Q8N3X1: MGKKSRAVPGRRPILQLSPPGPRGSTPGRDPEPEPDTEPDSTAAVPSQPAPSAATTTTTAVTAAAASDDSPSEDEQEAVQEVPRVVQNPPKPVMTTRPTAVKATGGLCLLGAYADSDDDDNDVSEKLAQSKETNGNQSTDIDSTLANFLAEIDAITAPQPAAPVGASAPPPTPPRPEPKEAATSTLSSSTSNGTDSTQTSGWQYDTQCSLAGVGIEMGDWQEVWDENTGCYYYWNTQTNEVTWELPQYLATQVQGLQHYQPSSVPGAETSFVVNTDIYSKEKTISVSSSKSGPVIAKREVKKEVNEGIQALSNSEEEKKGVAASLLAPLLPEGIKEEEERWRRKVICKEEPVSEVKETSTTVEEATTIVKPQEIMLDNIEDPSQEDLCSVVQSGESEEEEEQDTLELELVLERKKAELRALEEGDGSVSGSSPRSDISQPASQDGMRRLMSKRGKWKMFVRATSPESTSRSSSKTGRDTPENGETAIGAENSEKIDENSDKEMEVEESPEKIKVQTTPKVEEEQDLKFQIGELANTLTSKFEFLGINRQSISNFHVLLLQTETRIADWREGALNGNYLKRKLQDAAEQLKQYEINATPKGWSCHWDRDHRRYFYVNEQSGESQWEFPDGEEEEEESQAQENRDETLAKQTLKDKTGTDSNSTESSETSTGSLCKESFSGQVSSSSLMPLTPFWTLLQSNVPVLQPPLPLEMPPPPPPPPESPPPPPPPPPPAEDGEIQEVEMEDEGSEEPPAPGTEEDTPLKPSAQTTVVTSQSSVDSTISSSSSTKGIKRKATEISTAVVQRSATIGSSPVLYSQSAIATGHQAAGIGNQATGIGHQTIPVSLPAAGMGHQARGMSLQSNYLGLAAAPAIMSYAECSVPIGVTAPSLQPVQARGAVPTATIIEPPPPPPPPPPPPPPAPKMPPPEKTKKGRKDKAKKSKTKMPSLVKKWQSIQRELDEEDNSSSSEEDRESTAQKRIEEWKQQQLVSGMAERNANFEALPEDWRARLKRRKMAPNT
UniProt Q96CP2: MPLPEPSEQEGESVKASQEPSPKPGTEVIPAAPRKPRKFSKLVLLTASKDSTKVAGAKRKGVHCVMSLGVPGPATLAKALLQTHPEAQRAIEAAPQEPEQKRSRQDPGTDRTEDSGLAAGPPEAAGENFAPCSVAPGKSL
UniProt Q9UKT8: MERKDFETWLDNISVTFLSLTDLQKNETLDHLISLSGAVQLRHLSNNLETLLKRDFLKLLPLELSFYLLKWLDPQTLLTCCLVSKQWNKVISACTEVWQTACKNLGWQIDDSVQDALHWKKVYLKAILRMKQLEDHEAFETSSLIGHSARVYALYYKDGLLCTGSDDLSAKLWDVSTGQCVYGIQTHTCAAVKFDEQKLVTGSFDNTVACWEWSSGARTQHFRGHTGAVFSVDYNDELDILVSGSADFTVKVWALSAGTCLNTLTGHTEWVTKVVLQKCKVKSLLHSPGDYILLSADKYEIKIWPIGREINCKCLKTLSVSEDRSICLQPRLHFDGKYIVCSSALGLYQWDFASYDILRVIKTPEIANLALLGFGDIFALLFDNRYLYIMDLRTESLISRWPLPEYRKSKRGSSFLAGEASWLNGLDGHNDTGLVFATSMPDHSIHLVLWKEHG
UniProt Q5HYJ3: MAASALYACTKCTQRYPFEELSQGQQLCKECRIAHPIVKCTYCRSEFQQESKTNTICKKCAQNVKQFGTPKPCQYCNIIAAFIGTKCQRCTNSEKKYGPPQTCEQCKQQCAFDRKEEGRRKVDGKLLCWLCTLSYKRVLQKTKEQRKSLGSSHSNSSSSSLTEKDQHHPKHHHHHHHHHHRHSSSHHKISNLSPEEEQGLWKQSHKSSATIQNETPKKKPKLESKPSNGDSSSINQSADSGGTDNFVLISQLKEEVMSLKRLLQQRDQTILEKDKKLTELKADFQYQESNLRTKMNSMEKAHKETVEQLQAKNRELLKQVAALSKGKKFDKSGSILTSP

How the values were obtained:
Experiment in all cases: log2 fold change, soluble protein after heating vs DMSO (PISA); higher = thermal stabilisation; K562 cells, 10 uM, 30 min; active = over 0.2 and 3.5 SD of the protein, either way, in both replicates (recomputed)
IRAK-1-4 Inhibitor I = compound: C1COCCN1CCN2C3=CC=CC=C3N=C2NC(=O)C4=CC(=CC=C4)[N+](=O)[O-] [IRAK-1-4 Inhibitor I]
Method in brief: (§1)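 K562 cells at 2×10^6 cells/mL were treated for 30 min with 10 μM compound, and aliquots were heated for 3 min over 48°C-58°C before pooling. Extraction used PBS with 0.5% NP-40 at 4°C, and soluble protein was the supernatant after 21,000xg for 90 min, measured by TMTpro 16plex LC-MS/MS with channel sums equalised. Thermal stability values, relative to control samples and from duplicates, are log2 fold changes.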

ibrutinib = compound: C=CC(=O)N1CCC[C@@H](n2nc(-c3ccc(Oc4ccccc4)cc3)c3c(N)ncnc32)C1 [ibrutinib]
Method in brief: as §1

[1] = compound: CC(=O)c1cnc2ccc(-c3cc(Cl)c(O)c(Cl)c3)nc2c1N[C@H]1CC[C@H](CN(C)C)CC1
Method in brief: as §1

ralimetinib = compound: CC(C)(C)Cn1c(N)nc2ccc(-c3[nH]c(C(C)(C)C)nc3-c3ccc(F)cc3)nc21 [ralimetinib]
Method in brief: as §1

[2] = compound: CC(C)(O)CC(=O)NCCn1ccc2ncnc(Nc3ccc(Oc4cccc(C(F)(F)F)c4)c(Cl)c3)c21
Method in brief: as §1

[3] = compound: CC(C)C1=C2N=C(C=C(N2N=C1)NCC3=CC=CC=C3)NCCCCCCN
Method in brief: as §1

[4] = compound: CC(C)C[C@@H](C=O)NC(=O)[C@H](CC(C)C)NC(=O)[C@H](CC(C)C)NC(=O)OCc1ccccc1
Method in brief: as §1

pinometostat = compound: CC(C)N(C[C@H]1O[C@@H](n2cnc3c(N)ncnc32)[C@H](O)[C@@H]1O)[C@H]1C[C@@H](CCc2nc3cc(C(C)(C)C)ccc3[nH]2)C1 [pinometostat]
Method in brief: as §1

[5] = compound: CC1=C(C(CC(=O)N1)C2=CC=C(C=C2)C(F)(F)F)C(=O)NC3=C(C=C4C(=C3)C=NN4)F
Method in brief: as §1

[6] = compound: CC1=C(C2=C(C=C1)C(=O)C3=CC=CC=C3N2CCCN)C
Method in brief: as §1

[7] = compound: CC1=C(C=C(C=C1)NC(=O)C2=CC(=CC=C2)C(C)(C)C#N)NC3=CC4=C(C=C3)N=CN(C4=O)C
Method in brief: as §1

[8] = compound: CC1=C(C=C(C=C1)NC(=O)C2=CC(=CC=C2)N(C)C)NC(=O)C3=CC=C(C=C3)O
Method in brief: as §1

[9] = compound: CC1=CC=C(C=C1)SC2=C3C=C(SC3=CN=C2)C(=O)N
Method in brief: as §1

[10] = compound: CC1=NC(=CC=C1)C2=C(N=C(N2)C(C)(C)C)C3=CC4=NC=CN=C4C=C3
Method in brief: as §1

Nexturastat A = compound: CCCCN(Cc1ccc(C(=O)NO)cc1)C(=O)Nc1ccccc1 [Nexturastat A]
Method in brief: as §1

vemurafenib = compound: CCCS(=O)(=O)Nc1ccc(F)c(C(=O)c2c[nH]c3ncc(-c4ccc(Cl)cc4)cc23)c1F [vemurafenib]
Method in brief: as §1

[11] = compound: CCCS(=O)(=O)Nc1ccc(F)c(C(=O)c2c[nH]c3ncc(Cl)cc23)c1F
Method in brief: as §1

[12] = compound: CCCc1cc(C)[nH]c(=O)c1CNC(=O)c1cc(-c2ccnc(N3CCN(C)CC3)c2)cc2c1cnn2C(C)C
Method in brief: as §1

givinostat = compound: CCN(CC)Cc1ccc2cc(COC(=O)Nc3ccc(C(=O)NO)cc3)ccc2c1 [givinostat]
Method in brief: as §1

barasertib = compound: CCN(CCCOc1ccc2c(Nc3cc(CC(=O)Nc4cccc(F)c4)[nH]n3)ncnc2c1)CCOP(=O)(O)O [barasertib]
Method in brief: as §1

Measured: log2 fold change

FARSA (UniProt Q9Y285)
inactive: IRAK-1-4 Inhibitor I -0.024 | ibrutinib -0.008 | [1] 0.016 | ralimetinib 0.061 | [2] -0.054 | [3] -0.096 | [4] 0.01 | pinometostat 0.013 | [5] -0.02 | [6] 0.007 | [7] 0.012 | [8] -0.028 | [9] -0.017 | [10] -0.011 | Nexturastat A 0.029 | vemurafenib 0.037 | [11] 0.098 | [12] -0.003 | givinostat 0.046 | barasertib 0.021

FBXW9 (UniProt Q5XUX1)
inactive: IRAK-1-4 Inhibitor I 0.012 | ibrutinib 0.013 | [1] -0.041 | ralimetinib -0.021 | [2] -0.035 | [3] -0.004 | [4] 0.011 | pinometostat -0.005 | [5] 0.105 | [6] 0.038 | [7] -0.053 | [8] 0.036 | [9] 0.098 | [10] -0.032 | Nexturastat A 0.058 | vemurafenib -0.087 | [11] 0.037 | [12] -0.043 | givinostat -0.024 | barasertib 0.057

FLNB isoform 8 (UniProt O75369)
inactive: IRAK-1-4 Inhibitor I 0.013 | ibrutinib -0.021 | [1] 0.008 | ralimetinib -0.009 | [2] -0.01 | [3] 0.017 | [4] 0.018 | pinometostat 0.005 | [5] -0.049 | [6] 0.012 | [7] 0.012 | [8] -0.018 | [9] -0.002 | [10] 0.003 | Nexturastat A -0.012 | vemurafenib 0.028 | [11] 0.03 | [12] -0.014 | givinostat 0.014 | barasertib 0.014

FAM3C (UniProt Q92520)
inactive: IRAK-1-4 Inhibitor I 0.01 | ibrutinib 0.004 | [1] -0.003 | ralimetinib -0.059 | [2] 0.015 | [3] -0.027 | [4] -0.013 | pinometostat -0.022 | [5] -0.024 | [6] -0.047 | [7] 0.035 | [8] 0.009 | [9] 0.025 | [10] 0.007 | Nexturastat A -0.052 | vemurafenib 0 | [11] 0.03 | [12] -0.007 | givinostat -0.011 | barasertib 0.034

FCGR2C (UniProt P31995)
inactive: IRAK-1-4 Inhibitor I 0.095 | ibrutinib 0.096 | [1] -0.057 | ralimetinib -0.032 | [2] 0.093 | [3] 0.143 | [4] 0.01 | pinometostat -0.031 | [5] -0.006 | [6] 0.021 | [7] 0.006 | [8] -0.052 | [9] 0.021 | [10] 0.01 | Nexturastat A -0.013 | vemurafenib 0.011 | [11] -0.014 | [12] 0.01 | givinostat -0.018 | barasertib 0.01

FCSK isoform 2 (UniProt Q8N0W3)
inactive: IRAK-1-4 Inhibitor I 0.058 | ibrutinib -0.004 | [1] -0.04 | ralimetinib -0.046 | [2] -0.026 | [3] 0.076 | [4] 0.024 | pinometostat -0.013 | [5] -0.025 | [6] -0.031 | [7] -0.035 | [8] 0.015 | [9] 0.041 | [10] 0.028 | Nexturastat A -0.008 | vemurafenib 0.062 | [11] 0.015 | [12] -0.003 | givinostat 0.003 | barasertib 0.024

FHL2 (UniProt Q14192)
inactive: IRAK-1-4 Inhibitor I 0.007 | ibrutinib 0.024 | [1] 0.016 | ralimetinib -0.079 | [2] 0.02 | [3] 0.116 | [4] 0.021 | pinometostat -0.044 | [5] 0.02 | [6] -0.027 | [7] -0.011 | [8] -0.005 | [9] -0.027 | [10] -0.019 | Nexturastat A 0.052 | vemurafenib -0.063 | [11] -0.034 | [12] -0.015 | givinostat -0.018 | barasertib -0.008

FERMT3 (UniProt Q86UX7)
inactive: IRAK-1-4 Inhibitor I -0.019 | ibrutinib -0.036 | [1] -0.039 | ralimetinib 0.01 | [2] -0.048 | [3] -0.091 | [4] -0.022 | pinometostat -0.002 | [6] 0.003 | [7] 0.019 | [8] -0.024 | [9] 0.037 | [10] 0.054 | Nexturastat A -0.013 | vemurafenib 0.036 | [11] 0.083 | [12] 0.03 | givinostat 0.048 | barasertib 0.019

FLNA (UniProt P21333)
inactive: IRAK-1-4 Inhibitor I -0.046 | ibrutinib -0.111 | [1] 0.031 | ralimetinib 0.035 | [2] -0.086 | [3] -0.112 | [4] 0.049 | pinometostat 0.081 | [6] -0.027 | [7] -0.03 | [8] -0.049 | [9] 0.015 | [10] 0.006 | Nexturastat A 0.092 | vemurafenib 0.021 | [11] 0.075 | [12] 0.044 | givinostat 0.092 | barasertib 0.019

FDXR isoform 7 (UniProt P22570)
inactive: IRAK-1-4 Inhibitor I 0.031 | ibrutinib 0.046 | [1] -0.086 | ralimetinib -0.015 | [3] -0.091 | [4] 0.015 | pinometostat -0.024 | [6] 0.125 | [7] -0.011 | [8] -0.078 | [9] -0.039 | [10] 0.072 | Nexturastat A -0.07 | vemurafenib 0.02 | [11] 0.024 | [12] 0.059 | givinostat -0.021 | barasertib 0.035
active: [2] -0.27

FAM210B (UniProt Q96KR6)
inactive: IRAK-1-4 Inhibitor I 0.044 | ibrutinib 0.052 | [1] -0.013 | ralimetinib -0.075 | [2] 0.002 | [3] 0.057 | [4] 0.009 | pinometostat -0.055 | [5] -0.024 | [7] 0.042 | [8] -0.033 | [10] 0.029 | Nexturastat A 0.067 | vemurafenib 0.034 | givinostat 0.013 | barasertib 0.002

FMC1 (UniProt Q96HJ9)
inactive: IRAK-1-4 Inhibitor I -0.06 | ibrutinib 0.008 | [1] 0.066 | ralimetinib -0.098 | [2] -0.006 | [3] 0.01 | [4] 0.125 | pinometostat 0.047 | [6] 0.02 | [7] -0.036 | [8] -0.029 | [9] 0.027 | [10] 0.004 | Nexturastat A -0.038 | vemurafenib -0.065 | [11] 0.014 | [12] -0.074 | givinostat -0.051 | barasertib 0.022

FHL3 (UniProt Q13643)
inactive: IRAK-1-4 Inhibitor I 0.034 | ibrutinib 0.057 | [1] 0.023 | ralimetinib -0.035 | [2] 0.017 | [3] 0.073 | [4] 0.006 | pinometostat -0.04 | [5] 0.036 | [6] -0.032 | [7] -0.025 | [8] -0.002 | [9] -0.011 | [10] 0.017 | Nexturastat A -0.037 | vemurafenib -0.048 | [11] -0.008 | [12] -0.056 | givinostat 0.01 | barasertib -0.009

FNBP4 isoform 2 (UniProt Q8N3X1)
inactive: IRAK-1-4 Inhibitor I 0.052 | ibrutinib 0.058 | [1] -0.009 | ralimetinib -0.03 | [2] 0.038 | [3] 0.061 | [4] 0.014 | pinometostat -0.004 | [5] 0.023 | [6] -0.038 | [7] -0.046 | [8] 0.032 | [9] -0.003 | [10] -0.013 | Nexturastat A -0.004 | vemurafenib -0.054 | [11] -0.036 | [12] -0.035 | givinostat 0.019 | barasertib -0.017

FLYWCH2 (UniProt Q96CP2)
inactive: IRAK-1-4 Inhibitor I -0.014 | ibrutinib 0.017 | [1] 0.023 | ralimetinib -0.023 | [2] -0.03 | [3] 0.07 | [4] 0.009 | pinometostat 0.004 | [5] 0.024 | [6] 0.025 | [7] -0.078 | [8] 0.066 | [9] 0.047 | [10] 0.01 | Nexturastat A -0.092 | vemurafenib 0.013 | [11] 0.034 | [12] 0.017 | givinostat -0.019 | barasertib -0.004

FBXW2 (UniProt Q9UKT8)
inactive: IRAK-1-4 Inhibitor I -0.051 | ibrutinib 0.091 | [1] -0.02 | ralimetinib -0.188 | [2] -0.032 | [3] -0.053 | [4] 0.134 | pinometostat 0.074 | [6] 0.042 | [7] 0.131 | [8] 0.054 | [9] 0.133 | [10] -0.048 | Nexturastat A -0.143 | vemurafenib 0.158 | [11] -0.12 | [12] 0.152 | givinostat -0.032 | barasertib 0.026

Two entries drawn at random from the list so far, as already listed:
FMC1 (UniProt Q96HJ9)
inactive: IRAK-1-4 Inhibitor I -0.06 | ibrutinib 0.008 | [1] 0.066 | ralimetinib -0.098 | [2] -0.006 | [3] 0.01 | [4] 0.125 | pinometostat 0.047 | [6] 0.02 | [7] -0.036 | [8] -0.029 | [9] 0.027 | [10] 0.004 | Nexturastat A -0.038 | vemurafenib -0.065 | [11] 0.014 | [12] -0.074 | givinostat -0.051 | barasertib 0.022

FNBP4 isoform 2 (UniProt Q8N3X1)
inactive: IRAK-1-4 Inhibitor I 0.052 | ibrutinib 0.058 | [1] -0.009 | ralimetinib -0.03 | [2] 0.038 | [3] 0.061 | [4] 0.014 | pinometostat -0.004 | [5] 0.023 | [6] -0.038 | [7] -0.046 | [8] 0.032 | [9] -0.003 | [10] -0.013 | Nexturastat A -0.004 | vemurafenib -0.054 | [11] -0.036 | [12] -0.035 | givinostat 0.019 | barasertib -0.017

The listing continues:

FAM76B (UniProt Q5HYJ3)
inactive: IRAK-1-4 Inhibitor I -0.175 | ibrutinib -0.032 | [1] -0.008 | ralimetinib 0.075 | [2] -0.065 | [3] 0.176 | [4] 0.133 | pinometostat 0.098 | [5] -0.098 | [6] 0.089 | [7] -0.044 | [8] 0.057 | [9] -0.004 | [10] 0.023 | Nexturastat A 0.018 | vemurafenib 0.002 | [11] -0.017 | [12] 0.041 | givinostat 0.066 | barasertib -0.028
